# Experimental data published in PubChem BioAssay AID2283312 (EPA ToxCast).
# Sequences of proteins named here, by UniProt entry; tags and fusion partners are left off.
# UniProt P30083, whole entry, looked up: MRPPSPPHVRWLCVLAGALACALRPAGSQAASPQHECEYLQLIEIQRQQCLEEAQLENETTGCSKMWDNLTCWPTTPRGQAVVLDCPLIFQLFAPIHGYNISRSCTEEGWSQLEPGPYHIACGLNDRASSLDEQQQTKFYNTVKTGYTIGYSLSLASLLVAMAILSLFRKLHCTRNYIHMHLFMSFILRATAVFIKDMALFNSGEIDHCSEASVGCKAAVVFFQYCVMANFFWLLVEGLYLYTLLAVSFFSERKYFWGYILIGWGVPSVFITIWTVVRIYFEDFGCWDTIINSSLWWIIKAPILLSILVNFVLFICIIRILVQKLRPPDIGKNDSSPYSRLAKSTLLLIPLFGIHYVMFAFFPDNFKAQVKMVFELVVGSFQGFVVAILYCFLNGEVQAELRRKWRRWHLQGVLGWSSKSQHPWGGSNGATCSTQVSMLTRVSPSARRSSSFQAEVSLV
# The inconclusive results got no clear call from the source. Potencies of inconclusive entries are doubtful fits and often do not repeat.
# Molecular target: rat Vasoactive Intestinal Peptide Receptor (VIP), Non-selective Binding, Vipr1 (gene 24875) (UniProt P30083)
# Test: NVS_GPCR_rVIP_NonSelective: NovaScreen (NVS) G Protein-Coupled Receptor Assay for rat Vasoactive Intestinal Peptide Receptor (VIP), Non-selective Binding; active means hit-call score of the fitted dose curve at least 0.9, where 1 is the maximum; inconclusive means response in the unintended direction; inactive means score below 0.9
# Method: NVS_GPCR_rVIP_NonSelective is a biochemical, single-readout assay that uses extracted gene-proteins from Rat forebrain membranes in a tissue-based cell-free assay. Measurements were taken 1 hour after chemical dosing in a 96-well plate.NVS_GPCR_rVIP_NonSelective is one of one assay component(s) measured or calculated from the NVS_GPCR_rVIP_NonSelective assay. It is designed to make measurements of radioligand binding, a form of binding reporter, as detected with scintillation counting signals by Filter-based radiodetection technology.Data from the assay component NVS_GPCR_rVIP_NonSelective was analyzed into 1 assay endpoint. This assay endpoint, NVS_GPCR_rVIP_NonSelective, was analyzed in the positive analysis fitting direction relative to DMSO as the negative control and baseline of activity. Using a type of binding reporter, loss-of-signal activity can be used to understand changes in the binding as they relate to the gene Vipr1. Furthermore, this assay endpoint can be referred to as a primary readout, because the performed assay has only produced 1 assay endpoint. To generalize the intended target to other relatable targets, this assay endpoint is annotated to the gpcr intended target family, where the subfamily is secretin receptor. […]
structure (smiles),measurement,value
COc1cc(-c2ccc(N)c(OC)c2)ccc1N,AC50,inconclusive: 313 nM
